According to patent US20190330374A1:
Results are given in words; binding and its absence hold for the method and conditions named. Some entries that bind do so weakly or less than the wild type. Tags and fused reporters may be left off the sequences shown.

Molecular target: T1, OX40-Fc (R&D) (human) (UniProt P43489)
T1 sequence: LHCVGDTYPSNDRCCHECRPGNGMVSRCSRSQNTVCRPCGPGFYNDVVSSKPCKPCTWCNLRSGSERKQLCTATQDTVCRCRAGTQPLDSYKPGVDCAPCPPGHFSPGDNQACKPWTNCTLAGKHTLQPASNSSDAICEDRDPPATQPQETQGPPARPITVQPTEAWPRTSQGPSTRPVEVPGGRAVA
Assay: ELISA on coated OX40-Fc

B1: Anti-OX40 #1-IgG (antibody, V domains shown)
VH: QVQLQESGPGLVKPSQTLSLTCAVYGGSFSSGYWNWIRKHPGKGLEYIGYISYNGITYHNPSLKSRITINRDTSKNQYSLQLNSVTPEDTAVYYCARYKYDYDGGHAMDYWGQGTLVTVSS
VL: DIQMTQSPSSLSASVGDRVTITCRASQDISNYLNWYQQKPGKAPKLLIYYTSKLHSGVPSRFSGSGSGTDYTLTISSLQPEDFATYYCQQGSALPWTFGQGTKVEIK
With B1 the binding was “binds”.
